Reference: PubChem BioAssay AID1671195 (Yale University, 2021)
Screen: 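Genes whose knockdown alters LDL uptake in liver cancer cells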 (primary screen). System: human Huh7 hepatoma cells. Reagents: siRNA pool against human genes, 18 nM. Duration: about 2 to 2.5 days of knockdown, then 8 h LDL uptake. Conditions: DiI-labelled LDL at 30 µg/ml for 8 h, in lipoprotein-deficient serum medium. Read-out: 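Per-cell DiI-LDL intensity by automated imaging; well means scaled to the plate median and given as a robust z-score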. Reading the numbers: robust z-score: higher = more LDL uptake after knockdown. Active means: 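a gene counts as active if at least two replicate z-scores exceed ±2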.
Here is an unselected part of about 22,000 reagents tested. Over the whole deposit, about 1,510 (6.9%) were called active. 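Active includes knockdowns raising or lowering LDL uptake; positive z-scores mean more uptake, negative mean less.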 No sequences are given here.

no.	target	robust z-score, replicate 1	robust z-score, replicate 2	robust z-score, replicate 3	call
1	NR2F1 (GeneID 7025)	0.433	-0.411	0.357	inactive
2	SMTN (GeneID 6525)	0.299	0.318	-0.548	inactive
3	MXRA5 (GeneID 25878)	2.27	3.28	1.08	active
4	GUCA2A (GeneID 2980)	-1.22	0.00619	-0.726	inactive
5	HNRNPAB (GeneID 3182)	-0.291	-0.811	-1.11	inactive
6	POLR2L (GeneID 5441)	-0.903	-0.751	-0.441	inactive
7	MPP2 (GeneID 4355)	0.0582	0.738	0.42	inactive
8	LOC441650 (retired record) (GeneID 441650)	0.605	0.0867	0.175	inactive
9	PCDHB4 (GeneID 56131)	-0.906	-0.371	-0.451	inactive
10	NHLRC2 (GeneID 374354)	0.374	0.159	1.86	inactive
11	ZNF500 (GeneID 26048)	-0.355	0.0187	-1.2	inactive
12	CSRNP2 (GeneID 81566)	0.436	0.741	1.58	inactive
13	MKRN10P (GeneID 441455)	0.121	-0.226	-0.114	inactive
14	MSLN (GeneID 10232)	-0.817	-1.25	-1.29	inactive
15	GRAMD1C (GeneID 54762)	2.2	0.696	1.71	inactive

An excerpt taken from the entries so far, for reference:
no.	target	robust z-score, replicate 1	robust z-score, replicate 2	robust z-score, replicate 3	call
6	POLR2L (GeneID 5441)	-0.903	-0.751	-0.441	inactive
7	MPP2 (GeneID 4355)	0.0582	0.738	0.42	inactive
8	LOC441650 (retired record) (GeneID 441650)	0.605	0.0867	0.175	inactive
9	PCDHB4 (GeneID 56131)	-0.906	-0.371	-0.451	inactive

Continued:
no.	target	robust z-score, replicate 1	robust z-score, replicate 2	robust z-score, replicate 3	call
16	UBASH3B (GeneID 84959)	-0.594	-0.908	-0.389	inactive
17	OR6C1 (GeneID 390321)	0.236	0.568	0.255	inactive
18	ABCC8 (GeneID 6833)	-1.17	-1.42	-0.983	inactive
19	DRD5 (GeneID 1816)	-0.346	1.51	-0.804	inactive
20	LOC388966 (retired record) (GeneID 388966)	0.293	0.473	-0.0429	inactive
21	SMUG1 (GeneID 23583)	-0.166	-0.83	0.375	inactive
22	VLDLR-AS1 (GeneID 401491)	1.35	-0.0176	0.168	inactive
23	RUSC1 (GeneID 23623)	-0.64	1.1	-1.09	inactive
24	GPR149 (GeneID 344758)	1.35	0.658	1.21	inactive
25	CCL3 (GeneID 6348)	1.69	1.25	0.26	inactive
26	LINC00602 (GeneID 441177)	-1.76	-1.04	-1.04	inactive
27	AOC1 (GeneID 26)	-1.49	-1.46	-1.32	inactive
28	SDR9C7 (GeneID 121214)	-0.703	-1.07	-0.459	inactive
